Results deposited as PubChem BioAssay AID504793 (Drosophila RNAi Screening Center, 2011).
Screen: 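Whole-genome screen for parts of the DNA damage checkpoint at G2/M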 (primary screen). Cell system: Drosophila S2R+ cells. Reagent: long dsRNA against Drosophila genes, about 0.25 µg dsRNA per well. Duration: 4 days of dsRNA, then 4 hours of drug before read-out. Treatment: doxorubicin 0.5 µM for 4 hours to cause double-strand breaks, in cells also given a low, harmless dose of dsRNA against nbs to sensitise the assay. Measurement: 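Per-well count of mitotic cells stained for phospho-histone H3 after doxorubicin exposure, used as mitotic index; counts are raw and not normalised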. Direction: mitotic cells: higher = more cells in mitosis, weaker G2 arrest. Call rule: 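Genes are called active only when high mitotic counts were reproduced with independent dsRNAs and mitosis was checked for delay without damage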. Calls: active = confirmed in follow-up tests; inactive = not confirmed.
In all, the deposit lists about 23,000 reagents; below is a random part of those with a known target gene and a result. Of all reagents, 62 (0.27%) were called active. 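Calls come from follow-up tests whose scores are not deposited, so confirmed genes may have low counts here; counts are not normalised per plate.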 Raw values vary from plate to plate and are shown uncorrected. The numbers tell different reagents against one gene apart. A plus sign joins genes that one reagent is predicted to hit.

target gene | dsRNA no. | mitotic cells, replicate 1 | outcome
sle | 1 | 10 | inactive
yuri | 1 | 3 | inactive
yuri | 2 | 3 | inactive
yuri | 3 | 3 | inactive
yuri | 4 | 3 | inactive
CG12502 | 1 | 6 | inactive
CG32376 | 1 | 10 | inactive
CG1774 | 1 | 6 | inactive
NdufV3 | 1 | 8 | inactive
NdufV3 | 2 | 4 | inactive
Sps1 | 1 | 9 | inactive
Naprt | 1 | 9 | inactive
Naprt | 2 | 6 | inactive
Nxt1 | 1 | 3 | inactive
Nxt1 | 2 | 7 | inactive
Cyp6a20 | 1 | 7 | inactive
Sfxn1-3 | 1 | 2 | inactive
CenB1A | 1 | 19 | inactive
CenB1A | 2 | 11 | inactive
Ir31a | 1 | 16 | inactive
Cubn2 | 1 | 8 | inactive
Cubn2 | 2 | 7 | inactive
CG13295 | 1 | 1 | inactive
Pez | 1 | 3 | inactive
Pez | 2 | 6 | inactive
Npc2h | 1 | 4 | inactive
Ir94e | 1 | 14 | inactive
Echs1 | 1 | 7 | inactive
Rh2 | 1 | 7 | inactive
Rh2 | 2 | 12 | inactive
CG3704 | 1 | 12 | inactive
CG3704 | 2 | 13 | inactive
CG3704 | 3 | 2 | inactive
NO66 | 1 | 4 | inactive
Pfk | 1 | 10 | inactive
Pfk | 2 | 9 | inactive
CG1394 | 1 | 13 | inactive
CG1394 | 2 | 3 | inactive
CG32606 (retired record) | 1 | 11 | inactive
CG32606 (retired record) | 2 | 8 | inactive
CG32606 (retired record) | 3 | 6 | inactive
CG32606 (retired record) | 4 | 11 | inactive
CG32606 (retired record) | 5 | 4 | inactive
CG32606 (retired record) | 6 | 7 | inactive
AP-1-2beta | 1 | 10 | inactive
AP-1-2beta | 2 | 5 | inactive
Rab9Db + Rab9Fa | 1 | 8 | inactive
Spindly | 1 | 292 | inactive
CG3355 | 1 | 5 | inactive
sna | 1 | 5 | inactive
PPP1R15 | 1 | 15 | inactive
PPP1R15 | 2 | 1 | inactive
CG3078 | 1 | 5 | inactive
CG3078 | 2 | 4 | inactive
BEAF-32 | 1 | 13 | inactive
Bcat | 1 | 12 | inactive
Bcat | 2 | 7 | inactive
gro | 1 | 9 | inactive
hog | 1 | 3 | inactive
hog | 2 | 6 | inactive
CG13901 | 1 | 9 | inactive
rad (retired record) | 1 | 15 | inactive
rad (retired record) | 2 | 8 | inactive
CG17304 (retired record) | 1 | 6 | inactive
CG17304 (retired record) | 2 | 3 | inactive
mgl | 1 | 7 | inactive
mgl | 2 | 6 | inactive
mgl | 3 | 17 | inactive
mgl | 4 | 2 | inactive
CG3819 | 1 | 8 | inactive
CG3819 | 2 | 4 | inactive
gzl | 1 | 11 | inactive
gzl | 2 | 7 | inactive
CG8915 | 1 | 3 | inactive
CG14221 | 1 | 16 | inactive
Mrm2 | 1 | 9 | inactive
Mrm2 | 2 | 5 | inactive
CG11404 | 1 | 6 | inactive
CG11404 | 2 | 5 | inactive
CG5646 | 1 | 5 | inactive
CG5646 | 2 | 9 | inactive
CG14882 | 1 | 2 | inactive
CG14882 | 2 | 5 | inactive
CG14380 | 1 | 9 | inactive
Osi19 | 1 | 4 | inactive
CG31820 | 1 | 15 | inactive
CG31820 | 2 | 6 | inactive
CG31869 | 1 | 2 | inactive
CG31869 | 2 | 5 | inactive
Dus2 | 1 | 8 | inactive
THG | 1 | 7 | inactive
Traf-like | 1 | 8 | inactive
CG15641 | 1 | 13 | inactive
Eh | 1 | 8 | inactive
Ctr1A | 1 | 3 | inactive
WRNexo | 1 | 7 | inactive
janB | 1 | 12 | inactive
Tim9a | 1 | 8 | inactive
mRpL44 | 1 | 5 | inactive
mRpL44 | 2 | 3 | inactive
alph | 1 | 6 | inactive
alph | 2 | 6 | inactive
SLIRP1 + anox | 1 | 9 | inactive
CG6044 | 1 | 5 | inactive
CG15649 | 1 | 7 | inactive
CG15649 | 2 | 6 | inactive
Rfk | 1 | 7 | inactive
Rfk | 2 | 8 | inactive
CG9192 | 1 | – | inactive
AP-1gamma | 1 | 16 | inactive

A portion from the list above, for reference:
target gene | dsRNA no. | mitotic cells, replicate 1 | outcome
sna | 1 | 5 | inactive
PPP1R15 | 1 | 15 | inactive
PPP1R15 | 2 | 1 | inactive
CG3078 | 1 | 5 | inactive
CG3078 | 2 | 4 | inactive
BEAF-32 | 1 | 13 | inactive
Bcat | 1 | 12 | inactive
Bcat | 2 | 7 | inactive
gro | 1 | 9 | inactive
hog | 1 | 3 | inactive
hog | 2 | 6 | inactive
